# Literature values as cited in patent US10328128B2, “Treatment of infection by human enterovirus D68” (priority 2014, dated 2019).
# At least one compound was matched to its structure with a doubt left.
# Test system: EV-D68
# Details: Gao et al., drug concentrations >1 μM; cited from earlier work
smiles,measurement,value
"CCC(C)n1ncn(-c2ccc(N3CCN(c4ccc(OCC5COC(Cn6cncn6)(c6ccc(Cl)cc6Cl)O5)cc4)CC3)cc2)c1=O (centres unmarked) [Itraconazole, itraconazole]",titer reduction,1.5 log
same,virus titer reached,10^5 CCID50/ml
